Numbering of substitutions follows the chain as printed. Results are given in words; binding and its absence hold for the method and conditions named. In cells and extracts the contact can be indirect. For part of these data: Binding calls can cover weak binding; strength is not graded here. For part of these data: Where a sequence is shown, tags or fusion partners need not be part of it.
B1: cyclin-dependent kinase-like 5 (endogenous, HeLa) (enzyme, UniProt O76039 1-960)
chain: MKIPNIGNVMNKFEILGVVGEGAYGVVLKCRHKETHEIVAIKKFKDSEENEEVKETTLRELKMLRTLKQENIVELKEAFRRRGKLYLVFEYVEKNMLELLEEMPNGVPPEKVKSYIYQLIKAIHWCHKNDIVHRDIKPENLLISHNDVLKLCDFGFARNLSEGNNANYTEYVATRWYRSPELLLGAPYGKSVDMWSVGCILGELSDGQPLFPGESEIDQLFTIQKVLGPLPSEQMKLFYSNPRFHGLRFPAVNHPQSLERRYLGILNSVLLDLMKNLLKLDPADRYLTEQCLNHPTFQTQRLLDRSPSRSAKRKPYHVESSTLSNRNQAGKSTALQSHHRSNSKDIQNLSVGLPRADEGLPANESFLNGNLAGASLSPLHTKTYQASSQPGSTSKDLTNNNIPHLLSPKEAKSKTEFDFNIDPKPSEGPGTKYLKSNSRSQQNRHSFMESSQSKAGTLQPNEKQSRHSYIDTIPQSSRSPSYRTKAKSHGALSDSKSVSNLSEARAQIAEPSTSRYFPSSCLDLNSPTSPTPTRHSDTRTLLSPSGRNNRNEGTLDSRRTTTRHSKTMEELKLPEHMDSSHSHSLSAPHESFSYGLGYTSPFSSQQRPHRHSMYVTRDKVRAKGLDGSLSIGQGMAARANSLQLLSPQPGEQLPPEMTVARSSVKETSREGTSSFHTRQKSEGGVYHDPHSDDGTAPKENRHLYNDPVPRRVGSFYRVPSPRPDNSFHENNVSTRVSSLPSESSSGTNHSKRQPAFDPWKSPENISHSEQLKEKEKQGFFRSMKKKKKKSQTVPNSDSPDLLTLQKSIHSASTPSSRPKEWRPEKISDLQTQSQPLKSLRKLLHLSSASNHPASSDPRFQPLTAQQTKNSFSEIRIHPLSQASGGSSNIRQEPAPKGRPALQLPGQMDPGWHVSSVTRSATEGPSYSEQLGAKSGPNGHPYNRTNRSRMPNLNDLKETAL

Experiments:
WT CDKL5-3×FLAG = biological target: T1, WT CDKL5-3×FLAG (UniProt O76039); test: co-IP; anti-FLAG immunoprecipitation of WT or KD CDKL5-3×FLAG from reconstituted CDKL5-KO HeLa cells, mock-infected or infected with SINV/HA-capsid (MOI = 10, 8 hours), with vehicle (DMSO) or BafA1 (100 μM, 2 hours); immunoblot with anti-HA, anti-p62 and anti-FLAG
T1 sequence: B1 chain

[1] = biological target: T2, kinase-dead CDKL5^K42R-3×FLAG (UniProt O76039); test: as above
T2 sequence: B1 chain with K42R

[2] = biological target: SINV HA-tagged capsid (Sindbis virus); test: co-IP; HA-capsid immunoprecipitation (HA pull-down) from CDKL5-WT HeLa cells infected with SINV/HA-capsid (MOI = 10, 7 hours); immunoblot of endogenous CDKL5, p62 and HA-capsid

| Molecule | binding (WT CDKL5-3×FLAG) | binding [1] | binding [2] |
| --- | --- | --- | --- |
| SINV HA-tagged capsid (Sindbis virus) | no binding | no binding |  |
| B1 |  |  | binds |

Reference: paper PMC10760973
